# The supplement of paper PMC8728848
# The list shows a part of the results.
# B1: DC-Sign-R (Homo sapiens), Q9H2X3 (protein)
# chain: MSDSKEPRVQQLGLLEEDPTTSGIRLFPRDFQFQQIHGHKSSTGCLGHGALVLQLLSFMLLAGVLVAILVQVSKVPSSLSQEQSEQDAIYQNLTQLKAAVGELSEKSKLQEIYQELTQLKAAVGELPEKSKLQEIYQELTRLKAAVGELPEKSKLQEIYQELTRLKAAVGELPEKSKLQEIYQELTRLKAAVGELPEKSKLQEIYQELTELKAAVGELPEKSKLQEIYQELTQLKAAVGELPDQSKQQQIYQELTDLKTAFERLCRHCPKDWTFFQGNCYFMSNSQRNWHDSVTACQEVRAQLVVIKTAEEQNFLQLQTSRSNRFSWMGLSDLNQEGTWQWVDGSPLSPSFQRYWNSGEPNNSGNEDCAEFSGSGWNDNRCDVDNYWICKKPAACFRDE
# What was measured:
# Assay in all cases: glycan array binding signal (z-score within array); higher = stronger binding
# Conditions in all cases: glycan notation: IUPAC condensed, linker removed
# [1] = target: Neu5Ac(a2-6)Gal(b1-4)GlcNAc(b1-3)Gal(b1-4)GlcNAc(b1-3)Gal(b1-4)GlcNAc(b1-2)Man(a1-3)[Neu5Ac(a2-6)Gal(b1-4)GlcNAc(b1-3)Gal(b1-4)GlcNAc(b1-3)Gal(b1-4)GlcNAc(b1-2)Man(a1-6)]GalNAc
# Outline: (§1)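 The binding signal is a Z-score computed within each array. Data were drawn from 3228 arrays in the Consortium for Functional Glycomics database, restricted to those with a known protein sequence. Scores were averaged over arrays of the same protein sequence at different concentrations or buffers, and over linkers, and negative values can be taken as non-binding.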
# [2] = target: Neu5Ac(a2-6)Gal(b1-4)GlcNAc(b1-3)Gal(b1-4)GlcNAc(b1-3)GalNAc
# Outline: as §1
# [3] = target: Neu5Ac(a2-6)Gal(b1-4)GlcNAc(b1-3)Gal(b1-4)GlcNAc(b1-3)[Neu5Ac(a2-6)Gal(b1-4)GlcNAc(b1-3)Gal(b1-4)GlcNAc(b1-6)]GalNAc
# Outline: as §1
# [4] = target: Neu5Ac(a2-6)Gal(b1-4)GlcNAc(b1-3)Gal(b1-4)GlcNAc(b1-6)[Gal(b1-3)]GalNAc
# Outline: as §1
# [5] = target: Neu5Ac(a2-6)Gal(b1-4)GlcNAc(b1-3)Gal(b1-4)[Fuc(a1-3)]GlcNAc(b1-3)Gal(b1-4)[Fuc(a1-3)]GlcNAc
# Outline: as §1
# [6] = target: Neu5Ac(a2-6)Gal(b1-4)GlcNAc(b1-3)GalNAc
# Outline: as §1
# [7] = target: Neu5Ac(a2-6)Gal(b1-4)GlcNAc(b1-3)[Neu5Ac(a2-6)Gal(b1-4)GlcNAc(b1-6)]GalNAc
# Outline: as §1
# [8] = target: Neu5Ac(a2-6)Gal(b1-4)GlcNAc(b1-6)GalNAc
# Outline: as §1
# [9] = target: Neu5Ac(a2-6)Gal(b1-4)GlcNAc(b1-6)[Gal(b1-3)GlcNAc(b1-3)]Gal(b1-4)Glc
# Outline: as §1
# [10] = target: Neu5Ac(a2-6)Gal(b1-4)GlcNAc(b1-6)[Gal(b1-3)]GalNAc
# Outline: as §1
# [11] = target: Neu5Ac(a2-6)Gal(b1-4)GlcNAc6S
# Outline: as §1
# [12] = target: Neu5Ac(a2-6)GalNAc
# Outline: as §1
# [13] = target: Neu5Ac(a2-6)GalNAc(b1-4)GlcNAc
# Outline: as §1
# [14] = target: Neu5Ac(a2-6)GalNAc(b1-4)GlcNAc6S
# Outline: as §1
# [15] = target: Neu5Ac(a2-6)GlcNAc(b1-4)GlcNAc
# Outline: as §1
# [16] = target: Neu5Ac(a2-6)GlcNAc(b1-4)GlcNAc(b1-4)GlcNAc
# Outline: as §1
# [17] = target: Neu5Ac(a2-8)Neu5Ac
# Outline: as §1
# [18] = target: Neu5Ac(a2-8)Neu5Ac(a2-3)Gal(b1-3)GalNAc(b1-4)[Neu5Ac(a2-3)]Gal(b1-4)Glc
# Outline: as §1
# [19] = target: Neu5Ac(a2-8)Neu5Ac(a2-3)Gal(b1-3)GalNAc(b1-4)[Neu5Ac(a2-8)Neu5Ac(a2-3)]Gal(b1-4)Glc
# Outline: as §1
# [20] = target: Neu5Ac(a2-8)Neu5Ac(a2-3)Gal(b1-4)Glc
# Outline: as §1
# [21] = target: Neu5Ac(a2-8)Neu5Ac(a2-3)Gal(b1-4)GlcNAc
# Outline: as §1
# [22] = target: Neu5Ac(a2-8)Neu5Ac(a2-3)[Gal(b1-3)GalNAc(b1-4)]Gal(b1-4)Glc
# Outline: as §1
# [23] = target: Neu5Ac(a2-8)Neu5Ac(a2-3)[GalNAc(b1-4)]Gal(b1-4)Glc
# Outline: as §1
# [24] = target: Neu5Ac(a2-8)Neu5Ac(a2-8)Neu5Ac
# Outline: as §1
# [25] = target: Neu5Ac(a2-8)Neu5Ac(a2-8)Neu5Ac(a2-3)Gal(b1-4)Glc
# Outline: as §1
# [26] = target: Neu5Ac(a2-8)Neu5Ac(a2-8)Neu5Ac(a2-3)[Gal(b1-3)GalNAc(b1-4)]Gal(b1-4)Glc
# Outline: as §1
# [27] = target: Neu5Ac(a2-8)Neu5Ac(a2-8)Neu5Ac(a2-3)[GalNAc(b1-4)]Gal(b1-4)Glc
# Outline: as §1
# [28] = target: Neu5Ac(a2-8)Neu5Ac(a2-8)Neu5Ac(a2-8)Neu5Ac(a2-3)[GalNAc(b1-4)]Gal(b1-4)Glc
# Outline: as §1
# [29] = target: Neu5Ac(a2-8)Neu5Gc(a2-3)Gal(b1-4)GlcNAc
# Outline: as §1
# [30] = target: Neu5Ac(b2-6)Gal(b1-4)GlcNAc
# Outline: as §1
# [31] = target: Neu5Ac(b2-6)GalNAc
# Outline: as §1
# [32] = target: Neu5Ac9Ac(a2-3)Gal(b1-3)GlcNAc
# Outline: as §1
# [33] = target: Neu5Ac9Ac(a2-3)Gal(b1-4)GlcNAc
# Outline: as §1
# [34] = target: Neu5Ac9Ac(a2-6)Gal(b1-4)GlcNAc
# Outline: as §1
# [35] = target: Neu5Gc(a2-3)Gal(b1-3)GlcNAc
# Outline: as §1
# [36] = target: Neu5Gc(a2-3)Gal(b1-3)[Fuc(a1-4)]GlcNAc
# Outline: as §1
# [37] = target: Neu5Gc(a2-3)Gal(b1-4)Glc
# Outline: as §1
# [38] = target: Neu5Gc(a2-3)Gal(b1-4)GlcNAc
# Outline: as §1
# [39] = target: Neu5Gc(a2-3)Gal(b1-4)GlcNAc(b1-3)Gal(b1-4)GlcNAc(b1-2)Man(a1-3)[Neu5Gc(a2-3)Gal(b1-4)GlcNAc(b1-3)Gal(b1-4)GlcNAc(b1-2)Man(a1-6)]Man(b1-4)GlcNAc(b1-4)GlcNAc
# Outline: as §1
# [40] = target: Neu5Gc(a2-3)Gal(b1-4)[Fuc(a1-3)]GlcNAc
# Outline: as §1
# [41] = target: Neu5Gc(a2-6)Gal(b1-4)GlcNAc
# Outline: as §1
# [42] = target: Neu5Gc(a2-6)GalNAc
# Outline: as §1
# [43] = target: Neu5Gc(a2-8)Neu5Ac(a2-3)Gal(b1-4)GlcNAc
# Outline: as §1
# [44] = target: Neu5Gc(a2-8)Neu5Gc(a2-3)Gal(b1-4)GlcNAc
# Outline: as §1
# [45] = target: Neu5Gc(a2-8)Neu5Gc(a2-3)Gal(b1-4)GlcNAc(b1-3)Gal(b1-4)GlcNAc
# Outline: as §1
# [46] = target: Neu5Gc(a2-8)Neu5Gc(a2-6)Gal(b1-4)GlcNAc
# Outline: as §1
# [47] = target: Neu5Gc(b2-6)Gal(b1-4)GlcNAc
# Outline: as §1
binder,measurement,setting,value
B1,glycan array binding signal (z-score),[1],2.81
same,glycan array binding signal (z-score),[2],2.11
same,glycan array binding signal (z-score),[3],0.528
same,glycan array binding signal (z-score),[4],-0.577
same,glycan array binding signal (z-score),[5],0.007
same,glycan array binding signal (z-score),[6],1.5
same,glycan array binding signal (z-score),[7],-0.32
same,glycan array binding signal (z-score),[8],-0.471
same,glycan array binding signal (z-score),[9],0.956
same,glycan array binding signal (z-score),[10],1.1
same,glycan array binding signal (z-score),[11],-0.111
same,glycan array binding signal (z-score),[12],-0.552
same,glycan array binding signal (z-score),[13],0.35
same,glycan array binding signal (z-score),[14],-0.428
same,glycan array binding signal (z-score),[15],-0.047
same,glycan array binding signal (z-score),[16],0.07
same,glycan array binding signal (z-score),[17],-0.005
same,glycan array binding signal (z-score),[18],-0.694
same,glycan array binding signal (z-score),[19],-0.632
same,glycan array binding signal (z-score),[20],0.272
same,glycan array binding signal (z-score),[21],2.4
same,glycan array binding signal (z-score),[22],-0.55
same,glycan array binding signal (z-score),[23],-0.833
same,glycan array binding signal (z-score),[24],-0.606
same,glycan array binding signal (z-score),[25],-0.345
same,glycan array binding signal (z-score),[26],0.348
same,glycan array binding signal (z-score),[27],-0.616
same,glycan array binding signal (z-score),[28],-0.195
same,glycan array binding signal (z-score),[29],0.86
same,glycan array binding signal (z-score),[30],3.63
same,glycan array binding signal (z-score),[31],-0.692
same,glycan array binding signal (z-score),[32],-0.665
same,glycan array binding signal (z-score),[33],-0.451
same,glycan array binding signal (z-score),[34],-0.534
same,glycan array binding signal (z-score),[35],0.568
same,glycan array binding signal (z-score),[36],0.025
same,glycan array binding signal (z-score),[37],-0.38
same,glycan array binding signal (z-score),[38],0.184
same,glycan array binding signal (z-score),[39],-0.412
same,glycan array binding signal (z-score),[40],-0.228
same,glycan array binding signal (z-score),[41],0.445
same,glycan array binding signal (z-score),[42],-0.121
same,glycan array binding signal (z-score),[43],2.33
same,glycan array binding signal (z-score),[44],1.68
same,glycan array binding signal (z-score),[45],1.55
same,glycan array binding signal (z-score),[46],0.329
same,glycan array binding signal (z-score),[47],-0.152

# Random excerpt: three records from the list.
binder,measurement,setting,value
B1,glycan array binding signal (z-score),[40],-0.228
same,glycan array binding signal (z-score),[35],0.568
same,glycan array binding signal (z-score),[45],1.55
